# Whole data set: some 33,000 sequences, median “E-score (-0.5 to 0.5)” near -0.015, cut for the highest 2% near 0.3. The list shows a part of the results.
# Target: T1, Abf1 (UniProt P14164)
# T1 sequence: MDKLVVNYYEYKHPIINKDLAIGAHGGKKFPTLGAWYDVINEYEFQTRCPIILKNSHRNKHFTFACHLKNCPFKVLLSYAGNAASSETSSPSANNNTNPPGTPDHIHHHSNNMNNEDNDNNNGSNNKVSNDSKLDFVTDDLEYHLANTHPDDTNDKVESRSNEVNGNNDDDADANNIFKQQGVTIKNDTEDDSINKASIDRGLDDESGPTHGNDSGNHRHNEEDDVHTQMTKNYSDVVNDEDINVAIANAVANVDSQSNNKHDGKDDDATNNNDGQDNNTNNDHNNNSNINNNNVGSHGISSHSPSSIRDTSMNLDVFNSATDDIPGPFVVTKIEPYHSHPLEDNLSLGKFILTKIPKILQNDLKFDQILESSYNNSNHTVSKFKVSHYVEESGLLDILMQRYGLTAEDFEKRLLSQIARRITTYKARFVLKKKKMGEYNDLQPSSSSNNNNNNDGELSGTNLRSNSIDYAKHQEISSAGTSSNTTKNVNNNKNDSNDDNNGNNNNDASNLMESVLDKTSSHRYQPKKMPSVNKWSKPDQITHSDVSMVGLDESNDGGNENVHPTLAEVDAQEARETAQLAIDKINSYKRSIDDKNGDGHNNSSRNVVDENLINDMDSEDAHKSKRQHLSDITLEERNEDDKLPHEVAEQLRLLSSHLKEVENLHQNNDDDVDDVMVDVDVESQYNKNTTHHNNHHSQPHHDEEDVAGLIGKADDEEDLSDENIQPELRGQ
# Assay: PBM E-score (8-mer binding enrichment) (E-score (-0.5 to 0.5)); higher = stronger / more preferred TF binding
# Conditions: protein concentration: 200 nM; construct: GST-full length
# Outline: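 Each ungapped eight-base word and its reverse complement, pooled, received an E-score from the Universal PBM Analysis Suite. Underlying scans, normalised with masliner, recorded fluorescent anti-GST bound to GST-tagged yeast transcription factors. These were applied at about 100-200 nM to universal all-10-mer Agilent arrays double-stranded by primer extension.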
row,Sequence,PBM E-score
1,AAATTAAG,-0.0306
2,CAGTGCTA,-0.161
3,CTTCCTGC,-0.184
4,ACATCGGA,0.0338
5,GTCATGCA,0.208
6,CCCCCACG,-0.23
7,CACTGCCG,0.0574
8,GACTTTAA,-0.0109
9,ATCTCTAC,-0.0063
10,AGCCTGTG,-0.16
11,GTCCGTTA,0.161
12,ACAACTTA,0.0805
13,AGACAGGG,-0.119
14,ACCTTGTG,-0.0546
15,ATAACAAA,0.129
16,GAAGGGCA,-0.172
17,CAGTCACC,-0.00428
18,CGAATAGC,-0.2
19,AAAATACA,0.0468
20,ACGGGTCT,-0.199
21,AGGATTTC,-0.243
22,ACTGCGCC,-0.0997
23,ATGGAACC,-0.218
24,AAGTAGCA,0.151
25,CCTGTCAG,-0.249

row,Sequence,PBM E-score
1,GTTAAAAC,0.0636
2,TTCTAAAA,0.064
3,CGCGTTAC,0.0653
4,GACCTAGA,0.00072
5,CATAACGG,-0.0846
6,GCGTGCAC,-0.0221
7,CGTCCTAA,0.218
8,TACTCTGA,-0.0882
9,ATAATGCC,0.0461
10,CATTTCCC,0.138
11,GGTTTTCA,0.167
12,GCTTTCCA,0.072
13,ATGTTGGA,0.052
14,ATGTCTAC,-0.0792
15,AAAAAACT,0.00027
16,GATACATC,0.0742
17,AGGTATGG,-0.304
18,CCTACTCG,-0.0904
19,CATAAACC,0.0791
20,AGGGGAAC,-0.236
21,ACTTTAGC,-0.172
22,AAGATGCC,-0.0969
23,CTCCAAAG,-0.0859
24,TGGCTGAA,-0.00205
25,AGGCCGAG,-0.0867

# Taken from above:
# Under PBM E-score, AGGGGAAC shows -0.236
# Under PBM E-score, CCCCCACG shows -0.23
# Under PBM E-score, CTTCCTGC shows -0.184
# Under PBM E-score, CATTTCCC shows 0.138
# Under PBM E-score, GTCCGTTA shows 0.161
# Under PBM E-score, CAGTGCTA shows -0.161

# Additional records follow.

row,Sequence,PBM E-score
1,CAGATCGA,0.0324
2,ATGTCGGG,0.0062
3,CGCTAGCA,-0.037
4,AATCACGT,0.255
5,AACAACTG,0.0451
6,GGAAATGA,0.156
7,GATAAGGA,-0.0227
8,AACACTAA,0.0366
9,AGAGCACG,0.068
10,GGAATCAC,0.112
11,CCATCTAA,-0.139
12,GCACGAAC,0.269
13,CGTCTGGA,-0.0192
14,ACGAGCGT,0.0845
15,AACTTAGA,0.0904
16,AGATGGGG,-0.284
17,AGCCATGC,-0.153
18,GACATTGA,0.182
19,AAATAGCA,-0.07
20,CTCGCGGA,-0.149
21,CCATCCAG,-0.232
22,ATTTCCAA,0.00978
23,AGCTTTAT,0.00195
24,GGATCCTA,-0.0233
25,ATAGTGCA,0.141

row,Sequence,PBM E-score
1,ACTGCTAA,-0.185
2,AGCTCACA,0.0527
3,CACTAGAC,0.0603
4,AGGCCCCA,-0.212
5,CCAACCGA,0.00434
6,CCTGAACG,-0.0804
7,CTAACGAG,0.148
8,GATGCAGA,-0.0479
9,CCGGTTCG,-0.035
10,CGAGGACC,-0.0869
11,AGCTGAGG,-0.196
12,CGAGCGCC,-0.088
13,ACACACAA,0.0411
14,ACAAACGT,-0.084
15,ACAAAGGT,0.151
16,ACCCCTAA,-0.2
17,CCATAAGG,-0.243
18,TAAGGTCA,0.051
19,AATCGGCG,-0.0845
20,ACGTCGCT,0.144
21,CACTGCAA,0.0215
22,GGTTCCAC,-0.144
23,CGCCCGGA,-0.138
24,ATCGCTGG,0.108
25,CTAGGTCA,0.00518

# Laid out differently: entries from further up
row | Sequence | PBM E-score
12 | GCACGAAC | 0.269
13 | CGTCTGGA | -0.0192

# Remaining list, next part:

row,Sequence,PBM E-score
1,CAGTCTAG,0.0222
2,AGTTTCCG,0.0122
3,ATTGGGCA,0.0135
4,ACGGCCCA,-0.0404
5,AAACACCA,-0.0704
6,GTTCAACA,0.135
7,ACGTAGAA,0.108
8,ATCATCTC,0.253
9,TGAATCAA,0.0162
10,GAGAACAA,0.178
11,ACTGACGC,-0.209
12,ATTCCACA,0.0484
13,AAAGTCTA,0.0425
14,CACCTTCC,-0.0606
15,CCCATCAA,-0.153
16,TGCTGCCA,-0.246
17,AAGTTCCC,-0.051
18,GCCCCAGC,-0.274
19,GTATAGGA,0.0694
20,GCGAAGGA,-0.00182
21,AGGACTTG,-0.313
22,AAGGTGGT,-0.0932
23,ACGACAAT,0.329
24,ACCACTAA,-0.0853
25,CCAGTCAG,-0.175

row,Sequence,PBM E-score
1,GCATGATA,0.268
2,ATTAGAGA,0.0917
3,CGAACAAG,0.173
4,AGTGTGTC,0.0172
5,GGGCTATA,-0.0762
6,CGCAAGGA,-0.102
7,ACACCCGT,-0.04
8,GTCCGAAA,0.195
9,CATAGTGC,0.015
10,GGTTTGAA,0.132
11,CGCGGAGC,-0.176
12,ATATTCCG,0.0799
13,AAGTTAGC,-0.0803
14,GCAGACGA,0.174
15,CCGTTAGA,0.233
16,CAACGTAG,0.108
17,ATACGACG,0.341
18,TGTGCACA,0.0303
19,GCTGCGAC,0.00577
20,GCAAGTTA,0.0664
21,CCCGTTGC,-0.104
22,CGCTCTTA,0.0213
23,CTGACCCA,-0.152
24,GCGGCACC,-0.107
25,CAACAGGA,-0.192

row,Sequence,PBM E-score
1,AATAACAG,0.0417
2,AGGAACCC,-0.249
3,ACCGCACT,-0.0404
4,CCTATTTA,-0.0117
5,ACCTCGCT,-0.0122
6,AGTCGAAG,-0.187
7,ATACCCGC,-0.115
8,CTACGGGA,0.127
9,CTTAAGGA,-0.0142
10,ATGCTCTC,-0.159
11,ACGTGGCG,0.0289
12,GTTCGAAC,0.21
13,ATCGAAAG,0.0492
14,GGTGCACA,-0.05
15,AAGACAGA,0.00785
16,AAACATTT,0.0327
17,AGGTGCGG,-0.189
18,TATATAGA,0.0514
19,ACCGGAAT,-0.0838
20,CAAATGAG,-0.0746
21,GAACGGAA,0.0732
22,GATAGAGA,0.0831
